In all, about 340,000 compounds went through this assay and about 170 (0.05%) were called active. This list was built around the results that the source calls inconclusive (neither active nor inactive); the mix of calls is not that of the screen. The call rests on the fitted dose curve; in most records, active means well fitted inhibition curve with a large enough effect in the signal ratio, with a control signal flat (not every such curve was filed as active); inconclusive means small, poorly fitted or top-dose-only effect, or effect the other way, or a change in a side signal; inactive means flat fitted curve, though single readings scatter; the % refers to the signal ratio. Where the call is inconclusive, the potency comes from a doubtful curve fit.
Experiment: qHTS Assay to Find Inhibitors of Chronic Active B-Cell Receptor Signaling;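 on activity change, negative = inhibition: plate controls were basal doxycycline-induced cells for no effect and cells given 10 µM MG132 for full effect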
Details: ABC-DLBCL IkBa-CBG/CBR reporter, luminescence ratio (green luciferase fused to IkBa over red control in TMD8 lymphoma cells), 4 h; activity change, negative = inhibition: at 46.1 µM (top of the series)
Summary of the method: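 Concentration-response series (up to 46 uM) were applied to TMD8 dual-reporter cells for 4 h at 37C with doxycycline. Green/red ratio, after filter-overlap correction, defined %Activity; red signal alone was normalised to basal cells and zero luminescence.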
Potency means the concentration at half of the fitted maximal effect.

Structure (SMILES) | activity change, negative = inhibition | Potency
CC1=CC(c2ccc(Cl)cc2)n2nc(NC(=O)CCCC(=O)O)nc2N1 (stereo unspecified) | inconclusive: 0% | 
CN(CC(=O)NCc1ccccc1)S(=O)(=O)c1cnc[nH]1 | inconclusive: 7.88% | 
O=C(Nc1ccc2c(c1)OCO2)C(c1ccccc1)N1CCN(C(=O)c2ccco2)CC1 (stereo unspecified) | inconclusive: 22% | 
C=CC[C@@H](CC(=O)N(CCO)Cc1ccccc1)C(=O)N[C@H](COC(=O)[C@@H](CC=C)Cc1ccc(F)cc1)Cc1ccccc1 | inconclusive: -13.2% | 
CCN1C(=O)NC(c2cccnc2)C(C(=O)OC)=C1C (stereo unspecified) | inconclusive: -13.5% | 
CC12CCC(=O)N1C(C(=O)Nc1nnc(SCc3ccc(F)cc3)s1)CS2 (stereo unspecified) | inactive | 
CCOC(=O)CN1C(=O)N[C@@H](c2ccc(Br)cc2)C(C(=O)OC)=C1C | inactive | 
COc1ccc(CNCCC(c2ccccc2)c2ccc(OC(C)C)cc2)cc1OC (stereo unspecified) |  | inconclusive: 22.4 µM [falling, partial curve, poor fit]
COc1ccc(OC)c(N(CC(=O)NN=C2CCN(C)CC2)S(=O)(=O)c2ccccc2)c1 | inconclusive: 10.8% | 
CC(=O)OC(C(=O)NCc1ccco1)c1cccnc1 (stereo unspecified) | inconclusive: 8.48% | 
COc1ccc(C(=O)OC2CCN(c3ncc(C(F)(F)F)cc3Cl)CC2)cc1 | inconclusive: 7.37% | 
OCCOCCNc1ncnc2nc[nH]c12 | inactive | 
CC1CCN(C(=O)c2cc3ccccc3o2)CC1 | inconclusive: 0.682% | 
CCn1c(SCCN2CCCCC2)nnc1-c1ccc(S(=O)(=O)N2CCOCC2)cc1 | inactive | 
CC1c2ccccc2SC(CCCN(C)C)c2ccccc21 (stereo unspecified) |  | inconclusive: 32.6 µM [falling, partial curve, poor fit]
COc1ccc(C(=O)NNC2=C(C(=O)C(F)(F)F)CCC2)cc1 |  | inconclusive: 7.08 µM [falling, partial curve]
C#CCOCCOCCOCCNc1nc(N2CCOCC2)nc(N2CCN(C(=O)CCCCCCCCCCNC(=O)[C@@H]([C@H](C)O)n3cc(C)nn3)CC2)n1 | inactive | 
O=C(Nn1c(=O)[nH]c2ccsc2c1=O)c1ccccc1 | inactive | 
O=C(Nc1ccc2c(c1)OCO2)c1ccccn1 |  | inconclusive: 25.9 µM [falling, partial curve, poor fit]
COc1ccc(Nc2cc(C(=O)NCc3ccco3)c3ccccc3n2)cc1 |  | inconclusive: 0.411 µM [rising, full curve, poor fit]
CN(C)S(=O)(=O)c1cccc(NC(=O)c2cccc(NS(=O)(=O)c3ccccc3)c2)c1 |  | inconclusive: 15.8 µM [falling, single point]

Part of the list above, as a markdown table:

| Structure (SMILES) | activity change, negative = inhibition | Potency |
| --- | --- | --- |
| COc1ccc(Nc2cc(C(=O)NCc3ccco3)c3ccccc3n2)cc1 |  | inconclusive: 0.411 µM [rising, full curve, poor fit] |
| CN(C)S(=O)(=O)c1cccc(NC(=O)c2cccc(NS(=O)(=O)c3ccccc3)c2)c1 |  | inconclusive: 15.8 µM [falling, single point] |

— PubChem BioAssay AID493014 (National Center for Advancing Translational Sciences (NCATS), 2011)
